This data set in a line: general procedure: Fmoc solid-phase peptide synthesis; Fmoc-Ala-Wang Resin; HOBt/DIC; recoupling by symmetrical anhydride (DIC). The following applies: acetate salt.

End groups of sequences in plain letters are not given here.

Consider YARAAARQARAKALARQLGVAA, for which the step yield entry (purification step) is given as “Approximately 50-55%”. Further, the crude mass entry (whole synthesis) is recorded as “approximately 1,250 grams”.

Values taken from US10336788B2 (Moerae Matrix, Inc., priority 2014, dated 2019).
